Source: article PMC9547189
Results are given in words; binding and its absence hold for the method and conditions named. In cells and extracts the contact can be indirect. Some binding calls cover weakened binding; strength is not graded here.

Protein sequences, listed by entry. Tags and fused reporters are not part of them.
UniProt P46937: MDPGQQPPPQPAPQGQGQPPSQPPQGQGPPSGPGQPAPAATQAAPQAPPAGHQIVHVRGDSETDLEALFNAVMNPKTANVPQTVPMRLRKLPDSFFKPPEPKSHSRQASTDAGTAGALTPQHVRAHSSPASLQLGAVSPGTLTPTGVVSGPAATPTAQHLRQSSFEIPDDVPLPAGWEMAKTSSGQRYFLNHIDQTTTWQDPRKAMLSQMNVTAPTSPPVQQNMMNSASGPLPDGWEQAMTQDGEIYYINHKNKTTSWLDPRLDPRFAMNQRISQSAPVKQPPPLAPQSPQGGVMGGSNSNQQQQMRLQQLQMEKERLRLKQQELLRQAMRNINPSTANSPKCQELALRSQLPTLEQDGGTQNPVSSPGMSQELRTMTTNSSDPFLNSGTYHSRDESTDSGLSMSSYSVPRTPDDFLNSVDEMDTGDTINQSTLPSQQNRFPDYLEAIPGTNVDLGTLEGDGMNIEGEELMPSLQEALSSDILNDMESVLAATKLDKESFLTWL

Key:
Test in all cases: co-IP; reciprocal coIP of endogenous proteins from human placental tissue, PHTs and HTR8/SVneo cells; antibody on Protein A/G magnetic beads, Pierce IP Lysis Buffer, overnight at 4°C, western blotting
[1] = molecular target: Yes-associated protein 1 (YAP) (human (endogenous in placenta, PHTs and HTR8/SVneo)) (UniProt P46937)
[2] = molecular target: T1, large tumor suppressor 1 (LATS1) (human (endogenous in placenta, PHTs and HTR8/SVneo)) (UniProt O95835)
T1 sequence: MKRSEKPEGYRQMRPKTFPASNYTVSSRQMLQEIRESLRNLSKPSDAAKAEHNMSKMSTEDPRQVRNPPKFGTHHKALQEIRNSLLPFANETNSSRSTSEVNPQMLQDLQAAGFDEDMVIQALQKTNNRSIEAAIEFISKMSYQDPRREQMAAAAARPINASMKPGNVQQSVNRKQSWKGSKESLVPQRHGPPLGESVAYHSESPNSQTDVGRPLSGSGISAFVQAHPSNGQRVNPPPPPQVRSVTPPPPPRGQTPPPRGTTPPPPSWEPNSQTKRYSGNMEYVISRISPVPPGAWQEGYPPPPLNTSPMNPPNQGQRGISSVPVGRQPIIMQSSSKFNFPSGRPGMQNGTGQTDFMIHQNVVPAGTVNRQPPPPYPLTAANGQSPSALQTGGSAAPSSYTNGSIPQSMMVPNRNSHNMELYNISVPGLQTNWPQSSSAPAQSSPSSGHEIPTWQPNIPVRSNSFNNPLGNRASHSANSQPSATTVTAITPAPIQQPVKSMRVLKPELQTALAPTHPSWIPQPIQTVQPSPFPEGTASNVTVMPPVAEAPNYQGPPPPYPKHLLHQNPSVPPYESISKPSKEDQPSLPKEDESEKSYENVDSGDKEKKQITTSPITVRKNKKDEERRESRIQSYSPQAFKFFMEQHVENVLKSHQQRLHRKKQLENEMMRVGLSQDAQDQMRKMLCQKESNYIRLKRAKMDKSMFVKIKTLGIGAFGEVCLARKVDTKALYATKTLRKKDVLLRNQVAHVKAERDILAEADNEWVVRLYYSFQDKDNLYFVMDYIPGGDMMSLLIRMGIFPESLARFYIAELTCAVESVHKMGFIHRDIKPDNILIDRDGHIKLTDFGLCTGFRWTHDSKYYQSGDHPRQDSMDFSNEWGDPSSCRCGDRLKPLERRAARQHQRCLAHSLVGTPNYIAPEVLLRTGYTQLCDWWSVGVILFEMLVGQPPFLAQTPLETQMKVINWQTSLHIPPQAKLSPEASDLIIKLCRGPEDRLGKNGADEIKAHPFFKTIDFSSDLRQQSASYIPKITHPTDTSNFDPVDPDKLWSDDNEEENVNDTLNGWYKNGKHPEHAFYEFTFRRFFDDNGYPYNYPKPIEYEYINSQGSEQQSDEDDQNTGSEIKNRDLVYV

[3] = molecular target: T2, mammalian sterile 20-like kinase 1 (MST1) (human (endogenous in placenta, PHTs and HTR8/SVneo)) (UniProt Q13043)
T2 sequence: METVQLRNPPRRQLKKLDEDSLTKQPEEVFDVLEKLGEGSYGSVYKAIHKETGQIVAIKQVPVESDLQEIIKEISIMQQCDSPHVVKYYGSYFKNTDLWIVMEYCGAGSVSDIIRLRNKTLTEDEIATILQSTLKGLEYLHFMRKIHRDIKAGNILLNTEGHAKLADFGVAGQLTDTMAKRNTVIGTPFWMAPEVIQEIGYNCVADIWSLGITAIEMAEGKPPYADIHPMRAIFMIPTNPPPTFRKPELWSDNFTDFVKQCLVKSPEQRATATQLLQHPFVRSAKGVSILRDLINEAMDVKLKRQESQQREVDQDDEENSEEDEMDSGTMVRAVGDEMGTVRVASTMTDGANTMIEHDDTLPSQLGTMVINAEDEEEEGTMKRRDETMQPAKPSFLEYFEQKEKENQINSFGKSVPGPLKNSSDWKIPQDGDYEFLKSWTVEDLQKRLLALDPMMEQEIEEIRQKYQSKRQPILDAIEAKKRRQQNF

B1: PP2A Bβ (protein, UniProt Q00005 1-443)
chain: MEEDIDTRKINNSFLRDHSYATEADIISTVEFNHTGELLATGDKGGRVVIFQREQESKNQVHRRGEYNVYSTFQSHEPEFDYLKSLEIEEKINKIRWLPQQNAAYFLLSTNDKTVKLWKVSERDKRPEGYNLKDEEGRLRDPATITTLRVPVLRPMDLMVEATPRRVFANAHTYHINSISVNSDYETYMSADDLRINLWNFEITNQSFNIVDIKPANMEELTEVITAAEFHPHHCNTFVYSSSKGTIRLCDMRASALCDRHTKFFEEPEDPSNRSFFSEIISSISDVKFSHSGRYIMTRDYLTVKVWDLNMENRPIETYQVHDYLRSKLCSLYENDCIFDKFECVWNGSDSVIMTGSYNNFFRMFDRNTKRDVTLEASRENSKPRAILKPRKVCVGGKRRKDEISVDSLDFSKKILHTAWHPSENIIAVAATNNLYIFQDKVN
binding [1]: no binding
binding [2]: binds
binding [3]: no binding
